These results are taken from PubChem BioAssay AID1487 (National Center for Advancing Translational Sciences (NCATS), 2009).

This is one part of the list. Further columns of the screen follow, without active or inactive calls. The list favours compounds with an active or inconclusive main result. The note in brackets gives the kind of curve behind each potency; many fits are weak.

The experiment in a line: qHTS Assay for Modulators of Lamin A Splicing. The note with it: HeLa LMNA splicing GFP/RFP minigene ratio, 48 h. The method, boiled down:
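Read-out is the ratio of GFP to DsRed2 object intensity, acquired by 488 nm laser-scanning cytometry on HeLa lamin A-EGFP minigene reporter cells. Compound incubation 48 hrs at 37 °C in Opti-MEM with 2% FBS; DMSO 0.5% final.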
(qHTS replaces the single test concentration by a dilution series.)

[1] abbreviates: measured here: RFP viability control channel.
[2] abbreviates: measured here: GFP splicing reporter channel.

Regarding `CCC(O)CNC(=O)NC(=C(Cl)Cl)c1ccc(C)c(F)c1` (stereo not given), under setting [1], the AC50 (usually the concentration at which the activity in the assay is half-maximal) was 22.4 µM [rising, partial curve].

As to `COc1cccc(CN2CCc3nc(Nc4ccc5c(c4)OCCO5)ncc3C2)c1`, under setting [2], the AC50 was 35.5 µM [falling, single point].

For `Cc1ccc(O)c(N=Cc2ccc(C)s2)c1`, the half-maximal activity concentration (AC50) under setting [1] was 0.00447 µM [rising, full curve, poor fit].

Consider `Cn1/c(=N/NC(=O)c2cccc(OC(F)F)c2)sc2ccccc21`, for which the AC50 runs as follows: under setting [2], 35.5 µM [rising, single point]; under setting [1], 25.1 µM [rising, single point].

In the case of `CC(C)(C)n1ncc2c(=O)n(CC(=O)NCc3ccco3)cnc21`, the AC50 under setting [2] is 14.1 µM [falling, partial curve, poor fit].

Consider `COc1ccc(C(=O)/C=C/c2ccccc2)c(O)c1`, for which the AC50 under setting [2] is 1.12 µM [falling, full curve] and the AC50 under setting [1] is 35.5 µM [falling, partial curve].

Consider `O=C(COc1ncnc2sccc12)N1CCN(C(=O)c2ccco2)CC1`, for which the AC50 under setting [2] was 0.0141 µM [falling, full curve, poor fit] and the AC50 under setting [1] was 0.0141 µM [falling, full curve, poor fit].

On to `Cc1ccc2nc(N(Cc3cccnc3)C(=O)Cc3ccccc3)sc2c1`, for which the AC50 under setting [1] is 3.16 µM [falling, partial curve].

`COc1cc(/C=C(/C#N)C(=O)Nc2ccc(C)cc2)ccc1Oc1nc(Cl)ncc1F`: the AC50 under setting [2] is 2 µM [rising, full curve].

As for `CC(C)COc1ccc(CN=C(N)N=C(N)N)cc1Cl`, the AC50 under setting [1] is 22.4 µM [rising, single point].

Regarding `Cc1c2c(n3c(nc4ccccc43)c1C#N)N(CCCN(C)C)CC2`, the concentration at half-maximal activity (AC50) under setting [2] is 3.98 µM [falling, full curve, poor fit].

As to `C=CC1=C(C(=O)O)N2C(=O)[C@@H](NC(=O)/C(=N\OCC(=O)O)c3csc(N)n3)[C@@H]2SC1`, the AC50 is, setting by setting: under setting [2], 0.112 µM [falling, full curve, poor fit]; under setting [1], 0.1 µM [falling, full curve, poor fit].

Take `Cc1cccc(COCC(Cc2ccccc2)N2CCN(C(=O)c3ccc(C(F)(F)F)cc3)CCC2=O)c1` (stereo not given): the AC50 was 10 µM [rising, partial curve, poor fit] under setting [2] and 15.8 µM [rising, partial curve] under setting [1].

As for `CCCCn1c(=O)n(C)c(=O)c2c3c(sc21)COC(C)(C)C3`, the AC50 under setting [1] is 14.1 µM [rising, partial curve].

With `O=C(/C=C/c1ccc(Cl)cc1Cl)Nc1cccc(S(=O)(=O)NC2=NCCC2)c1`, under setting [2], the AC50 is 12.6 µM [falling, partial curve, poor fit].
